# Test results reported in paper PMC12266109.
# Target: T1, FLAG-tagged TSC22D2 (UniProt O75157)
# T1 sequence: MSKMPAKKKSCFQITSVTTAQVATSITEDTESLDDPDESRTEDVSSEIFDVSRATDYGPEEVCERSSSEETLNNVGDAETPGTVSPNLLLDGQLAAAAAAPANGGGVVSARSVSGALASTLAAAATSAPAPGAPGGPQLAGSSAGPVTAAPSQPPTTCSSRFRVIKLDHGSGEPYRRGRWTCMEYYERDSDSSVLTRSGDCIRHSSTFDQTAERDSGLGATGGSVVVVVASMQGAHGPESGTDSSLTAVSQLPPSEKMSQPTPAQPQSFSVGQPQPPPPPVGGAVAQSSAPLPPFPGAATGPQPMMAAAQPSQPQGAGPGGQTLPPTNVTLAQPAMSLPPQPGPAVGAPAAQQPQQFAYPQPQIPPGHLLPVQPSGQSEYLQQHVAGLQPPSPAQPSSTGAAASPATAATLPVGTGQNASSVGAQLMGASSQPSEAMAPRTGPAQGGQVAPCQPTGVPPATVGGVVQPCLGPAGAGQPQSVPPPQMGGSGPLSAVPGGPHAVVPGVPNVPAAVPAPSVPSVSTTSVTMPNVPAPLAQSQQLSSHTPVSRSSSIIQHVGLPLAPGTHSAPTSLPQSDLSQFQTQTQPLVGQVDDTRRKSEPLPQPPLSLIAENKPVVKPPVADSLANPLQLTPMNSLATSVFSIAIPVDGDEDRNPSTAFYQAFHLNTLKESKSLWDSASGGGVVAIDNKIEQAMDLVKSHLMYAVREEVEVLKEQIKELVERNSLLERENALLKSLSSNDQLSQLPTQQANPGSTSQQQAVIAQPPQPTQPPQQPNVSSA
# Experiment: co-IP; lysates of transfected HEK293 cells; FLAG-tagged TSC22D2 immunoprecipitated (FLAG M2 magnetic beads), TSC22D3-V5 detected by immunoblot
substance,measurement,value
TSC22D3-V5,binding,binds

# No constants are given. Whether binding was seen depends on the method and setting. In cells and extracts the contact can be indirect. Binding can be weak; no strength is given. Sequences can lack the tags named with a protein.
